# Data reported in the supplement of paper PMC8728848.
# Some of the results follow.
# Tests used:
# Assay in all cases: glycan array binding signal (z-score within array); higher = stronger binding
# Settings in all cases: glycan notation: IUPAC condensed, linker removed
# [1] = target: Neu5Ac(a2-3)Gal(b1-4)GlcNAc(b1-2)[Neu5Ac(a2-3)Gal(b1-4)GlcNAc(b1-4)]Man(a1-3)[GlcNAc(b1-4)][Neu5Ac(a2-3)Gal(b1-4)GlcNAc(b1-4)Man(a1-6)]Man(b1-4)GlcNAc(b1-4)GlcNAc
# Summary of the method: (§1)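 Negative Z-scores can be read as non-binding. The Z-score is calculated within each array and then averaged across arrays of one protein sequence at different concentrations or buffers and across linkers. Arrays, 3228 in all, were curated from the Consortium for Functional Glycomics database and kept only where the protein sequence was available.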
# [2] = target: Neu5Ac(a2-3)Gal(b1-4)GlcNAc(b1-2)[Neu5Ac(a2-3)Gal(b1-4)GlcNAc(b1-6)]Man(a1-6)[Neu5Ac(a2-3)Gal(b1-4)GlcNAc(b1-2)Man(a1-3)]Man(b1-4)GlcNAc(b1-4)GlcNAc
# Summary of the method: as §1
# [3] = target: Neu5Ac(a2-3)Gal(b1-4)GlcNAc(b1-2)[Neu5Ac(a2-3)Gal(b1-4)GlcNAc(b1-6)]Man(a1-6)[Neu5Ac(a2-3)Gal(b1-4)GlcNAc(b1-2)Man(a1-3)][GlcNAc(b1-4)]Man(b1-4)GlcNAc(b1-4)GlcNAc
# Summary of the method: as §1
# [4] = target: Neu5Ac(a2-3)Gal(b1-4)GlcNAc(b1-3)Gal
# Summary of the method: as §1
# [5] = target: Neu5Ac(a2-3)Gal(b1-4)GlcNAc(b1-3)Gal(b1-3)GlcNAc
# Summary of the method: as §1
# [6] = target: Neu5Ac(a2-3)Gal(b1-4)GlcNAc(b1-3)Gal(b1-4)GlcNAc
# Summary of the method: as §1
# [7] = target: Neu5Ac(a2-3)Gal(b1-4)GlcNAc(b1-3)Gal(b1-4)GlcNAc(b1-2)Man(a1-3)[Neu5Ac(a2-3)Gal(b1-4)GlcNAc(b1-3)Gal(b1-4)GlcNAc(b1-2)Man(a1-6)]Man(b1-4)GlcNAc(b1-4)GlcNAc
# Summary of the method: as §1
# [8] = target: Neu5Ac(a2-3)Gal(b1-4)GlcNAc(b1-3)Gal(b1-4)GlcNAc(b1-3)Gal(b1-4)GlcNAc
# Summary of the method: as §1
# [9] = target: Neu5Ac(a2-3)Gal(b1-4)GlcNAc(b1-3)Gal(b1-4)GlcNAc(b1-3)Gal(b1-4)GlcNAc(b1-2)Man(a1-3)[Neu5Ac(a2-3)Gal(b1-4)GlcNAc(b1-3)Gal(b1-4)GlcNAc(b1-3)Gal(b1-4)GlcNAc(b1-2)Man(a1-6)]GalNAc
# Summary of the method: as §1
# [10] = target: Neu5Ac(a2-3)Gal(b1-4)GlcNAc(b1-3)Gal(b1-4)GlcNAc(b1-3)GalNAc
# Summary of the method: as §1
# [11] = target: Neu5Ac(a2-3)Gal(b1-4)GlcNAc(b1-3)Gal(b1-4)GlcNAc(b1-3)[Neu5Ac(a2-3)Gal(b1-4)GlcNAc(b1-3)Gal(b1-4)GlcNAc(b1-6)]GalNAc
# Summary of the method: as §1
# [12] = target: Neu5Ac(a2-3)Gal(b1-4)GlcNAc(b1-3)Gal(b1-4)GlcNAc(b1-6)[Gal(b1-3)]GalNAc
# Summary of the method: as §1
# [13] = target: Neu5Ac(a2-3)Gal(b1-4)GlcNAc(b1-3)Gal(b1-4)[Fuc(a1-3)]GlcNAc
# Summary of the method: as §1
# [14] = target: Neu5Ac(a2-3)Gal(b1-4)GlcNAc(b1-3)GalNAc
# Summary of the method: as §1
# [15] = target: Neu5Ac(a2-3)Gal(b1-4)GlcNAc(b1-3)[Neu5Ac(a2-3)Gal(b1-4)GlcNAc(b1-6)]GalNAc
# Summary of the method: as §1
# [16] = target: Neu5Ac(a2-3)Gal(b1-4)GlcNAc(b1-6)GalNAc
# Summary of the method: as §1
# [17] = target: Neu5Ac(a2-3)Gal(b1-4)GlcNAc(b1-6)[Gal(b1-3)]GalNAc
# Summary of the method: as §1
# [18] = target: Neu5Ac(a2-3)Gal(b1-4)GlcNAc(b1-6)[Neu5Ac(a2-3)Gal(b1-3)]GalNAc
# Summary of the method: as §1
# [19] = target: Neu5Ac(a2-3)Gal(b1-4)GlcNAc6S
# Summary of the method: as §1
# [20] = target: Neu5Ac(a2-3)Gal(b1-4)[Fuc(a1-3)]GlcNAc
# Summary of the method: as §1
# [21] = target: Neu5Ac(a2-3)Gal(b1-4)[Fuc(a1-3)]GlcNAc(b1-2)Man
# Summary of the method: as §1
# [22] = target: Neu5Ac(a2-3)Gal(b1-4)[Fuc(a1-3)]GlcNAc(b1-3)Gal
# Summary of the method: as §1
# [23] = target: Neu5Ac(a2-3)Gal(b1-4)[Fuc(a1-3)]GlcNAc(b1-3)Gal(b1-4)GlcNAc
# Summary of the method: as §1
# [24] = target: Neu5Ac(a2-3)Gal(b1-4)[Fuc(a1-3)]GlcNAc(b1-3)Gal(b1-4)[Fuc(a1-3)]GlcNAc(b1-3)Gal(b1-4)[Fuc(a1-3)]GlcNAc
# Summary of the method: as §1
# [25] = target: Neu5Ac(a2-3)Gal(b1-4)[Fuc(a1-3)]GlcNAc(b1-3)GalNAc
# Summary of the method: as §1
# [26] = target: Neu5Ac(a2-3)Gal(b1-4)[Fuc(a1-3)]GlcNAc(b1-6)[Gal(b1-3)]GalNAc
# Summary of the method: as §1
# [27] = target: Neu5Ac(a2-3)Gal(b1-4)[Fuc(a1-3)]GlcNAc(b1-6)[Neu5Ac(a2-3)Gal(b1-3)]GalNAc
# Summary of the method: as §1
# [28] = target: Neu5Ac(a2-3)Gal(b1-4)[Fuc(a1-3)]GlcNAc6S
# Summary of the method: as §1
# [29] = target: Neu5Ac(a2-3)Gal6S(b1-4)GlcNAc
# Summary of the method: as §1
# [30] = target: Neu5Ac(a2-3)Gal6S(b1-4)[Fuc(a1-3)]GlcNAc
# Summary of the method: as §1
# Neu5Ac(a2-3)GalNAc = target: Neu5Ac(a2-3)GalNAc
# Summary of the method: as §1
# [31] = target: Neu5Ac(a2-3)GalNAc(b1-4)GlcNAc
# Summary of the method: as §1
# [32] = target: Neu5Ac(a2-3)[GalNAc(b1-4)]Gal(b1-4)Glc
# Summary of the method: as §1
# [33] = target: Neu5Ac(a2-3)[GalNAc(b1-4)]Gal(b1-4)GlcNAc
# Summary of the method: as §1
# [34] = target: Neu5Ac(a2-3)[GalNAc(b1-4)]Gal(b1-4)GlcNAc(b1-3)GalNAc
# Summary of the method: as §1
# [35] = target: Neu5Ac(a2-3)[Neu5Ac(a2-6)]GalNAc
# Summary of the method: as §1
# Neu5Ac(a2-6)Gal = target: Neu5Ac(a2-6)Gal
# Summary of the method: as §1
binder,measurement,setting,value
Sp8391B-bot-388-20-388 (Bacteroides ovatus) (protein) GCQNNDENEQHYDNKLFISASNFTKEILFKAGDTNVETGLSVAIAKPEEHDIKVTMSPAPELLSTYKLAYYDETAVLLSEEHYSMPETSTTIKSGSIVSPELPIEFINTGELDIKTTYVLPVTIKSVEGIGVLQSAKTYYYVFRGASLINVVCNISRNRAYPDFKNDSKFNNLTENTMEILFKANSFPNTLNTLMGIESNYLLRIGDATIPNNQLQVATSVNNCTSADLQLESGKWYHVAVAFNKGNVKVYINGVEKLSGSTGKSSVSLGAKHTNEEDGSRCFWVGYSYKDDRYFDGVVSEVRIWNRALTAEEIQATNHFYTIEPESEGLIAYWKFDEGSGTVAKDYSVSGYDLTIEKEPKWESVSLPQ,glycan array binding signal (z-score),[1],-0.92
same,glycan array binding signal (z-score),[2],0.918
same,glycan array binding signal (z-score),[3],0.676
same,glycan array binding signal (z-score),[4],-0.707
same,glycan array binding signal (z-score),[5],-0.674
same,glycan array binding signal (z-score),[6],-0.229
same,glycan array binding signal (z-score),[7],-0.056
same,glycan array binding signal (z-score),[8],-0.525
same,glycan array binding signal (z-score),[9],1.33
same,glycan array binding signal (z-score),[10],-0.096
same,glycan array binding signal (z-score),[11],1.19
same,glycan array binding signal (z-score),[12],1.14
same,glycan array binding signal (z-score),[13],0.229
same,glycan array binding signal (z-score),[14],-0.435
same,glycan array binding signal (z-score),[15],0.693
same,glycan array binding signal (z-score),[16],1.31
same,glycan array binding signal (z-score),[17],0.353
same,glycan array binding signal (z-score),[18],-0.62
same,glycan array binding signal (z-score),[19],-1.13
same,glycan array binding signal (z-score),[20],-0.693
same,glycan array binding signal (z-score),[21],-0.692
same,glycan array binding signal (z-score),[22],-0.21
same,glycan array binding signal (z-score),[23],1.29
same,glycan array binding signal (z-score),[24],-0.058
same,glycan array binding signal (z-score),[25],1.02
same,glycan array binding signal (z-score),[26],-0.244
same,glycan array binding signal (z-score),[27],0.854
same,glycan array binding signal (z-score),[28],-0.908
same,glycan array binding signal (z-score),[29],-0.501
same,glycan array binding signal (z-score),[30],-0.357
same,glycan array binding signal (z-score),Neu5Ac(a2-3)GalNAc,0.163
same,glycan array binding signal (z-score),[31],-0.763
same,glycan array binding signal (z-score),[32],0.131
same,glycan array binding signal (z-score),[33],-0.664
same,glycan array binding signal (z-score),[34],-0.113
same,glycan array binding signal (z-score),[35],-0.561
same,glycan array binding signal (z-score),Neu5Ac(a2-6)Gal,-0.089

# Three entries picked at random from the list so far:
binder,measurement,setting,value
Sp8391B-bot-388-20-388 (Bacteroides ovatus) (protein) GCQNNDENEQHYDNKLFISASNFTKEILFKAGDTNVETGLSVAIAKPEEHDIKVTMSPAPELLSTYKLAYYDETAVLLSEEHYSMPETSTTIKSGSIVSPELPIEFINTGELDIKTTYVLPVTIKSVEGIGVLQSAKTYYYVFRGASLINVVCNISRNRAYPDFKNDSKFNNLTENTMEILFKANSFPNTLNTLMGIESNYLLRIGDATIPNNQLQVATSVNNCTSADLQLESGKWYHVAVAFNKGNVKVYINGVEKLSGSTGKSSVSLGAKHTNEEDGSRCFWVGYSYKDDRYFDGVVSEVRIWNRALTAEEIQATNHFYTIEPESEGLIAYWKFDEGSGTVAKDYSVSGYDLTIEKEPKWESVSLPQ,glycan array binding signal (z-score),[13],0.229
same,glycan array binding signal (z-score),Neu5Ac(a2-3)GalNAc,0.163
same,glycan array binding signal (z-score),[24],-0.058
